Measurements as given in publication PMC11523043.
No constants are given. Whether binding was seen depends on the method and setting. Binding seen in cells or lysates may run through a third protein. Some results given as binding are weak or reduced against the parent protein; the word gives no strength. Sequences can lack the tags named with a protein.

Tests used:
[1] = molecular target: T1, Flag-tagged USP36 (UniProt Q9P275); assay: co-IP; soluble nucleolar fraction of HeLa cells stably expressing Flag-USP36 (high-salt RIPA lysis, diluted), anti-Flag antibody, followed by IB
T1 sequence: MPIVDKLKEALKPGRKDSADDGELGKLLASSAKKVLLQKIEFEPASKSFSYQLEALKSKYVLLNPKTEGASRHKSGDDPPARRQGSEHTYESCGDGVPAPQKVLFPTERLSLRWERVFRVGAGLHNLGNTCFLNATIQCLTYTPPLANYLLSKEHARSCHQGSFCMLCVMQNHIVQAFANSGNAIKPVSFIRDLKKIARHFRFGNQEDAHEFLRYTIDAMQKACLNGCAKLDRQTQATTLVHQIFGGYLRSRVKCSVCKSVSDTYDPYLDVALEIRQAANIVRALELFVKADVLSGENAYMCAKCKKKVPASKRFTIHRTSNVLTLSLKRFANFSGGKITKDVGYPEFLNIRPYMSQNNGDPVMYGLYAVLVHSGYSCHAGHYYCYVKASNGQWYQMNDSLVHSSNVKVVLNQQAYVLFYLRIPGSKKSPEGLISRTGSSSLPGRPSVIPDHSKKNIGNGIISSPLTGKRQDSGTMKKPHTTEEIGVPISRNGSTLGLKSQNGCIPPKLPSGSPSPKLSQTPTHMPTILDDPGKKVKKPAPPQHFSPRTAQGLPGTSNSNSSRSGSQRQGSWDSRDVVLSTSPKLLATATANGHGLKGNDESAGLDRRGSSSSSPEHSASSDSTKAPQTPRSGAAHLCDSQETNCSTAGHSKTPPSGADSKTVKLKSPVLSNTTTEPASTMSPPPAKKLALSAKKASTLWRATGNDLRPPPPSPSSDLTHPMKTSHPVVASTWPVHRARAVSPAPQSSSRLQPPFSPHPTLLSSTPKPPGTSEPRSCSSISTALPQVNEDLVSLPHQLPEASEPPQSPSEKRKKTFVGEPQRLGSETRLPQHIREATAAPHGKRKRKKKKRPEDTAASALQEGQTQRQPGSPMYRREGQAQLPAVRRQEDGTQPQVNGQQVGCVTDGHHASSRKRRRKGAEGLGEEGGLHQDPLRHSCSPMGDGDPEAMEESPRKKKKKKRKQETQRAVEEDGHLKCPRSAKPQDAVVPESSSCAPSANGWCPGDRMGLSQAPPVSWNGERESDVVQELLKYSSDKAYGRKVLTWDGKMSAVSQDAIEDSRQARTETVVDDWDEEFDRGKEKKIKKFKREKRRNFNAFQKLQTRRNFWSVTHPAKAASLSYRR

[2] = molecular target: T2, Flag-USP36 C-terminal nucleolar localization signal (NoLS)-containing region (amino acids 801-1121) (UniProt Q9P275); assay: co-IP; lysates of cells (HEK293, HeLa or H1299) transfected with the Flag-tagged bait, anti-Flag (M2) agarose, 4°C for 4 hours, 50 mmol/L Tris-HCl pH 8.0, 0.5% Nonidet P-40, 150 mmol/L NaCl; endogenous partner detected by IB; for Flag-USP36 also in the presence of 100 μg/mL RNase A and 100 U/mL RNase T1
T2 sequence: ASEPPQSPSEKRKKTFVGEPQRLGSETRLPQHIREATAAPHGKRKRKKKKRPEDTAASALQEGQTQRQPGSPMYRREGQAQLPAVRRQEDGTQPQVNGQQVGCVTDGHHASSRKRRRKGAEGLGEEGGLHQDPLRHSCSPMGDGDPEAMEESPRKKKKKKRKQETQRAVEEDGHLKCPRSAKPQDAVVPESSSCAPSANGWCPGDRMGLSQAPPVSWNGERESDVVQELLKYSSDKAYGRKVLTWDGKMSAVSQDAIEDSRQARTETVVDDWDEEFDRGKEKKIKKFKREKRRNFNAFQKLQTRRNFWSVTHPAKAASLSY

[3] = molecular target: T1, Flag-tagged USP36; assay: as above
[4] = molecular target: T3, Flag-Las1L middle coiled-coil domain (amino acids 189-613) (UniProt Q9Y4W2); assay: co-IP; H1299 cells co-transfected with V5-USP36 and Flag-Las1L or Flag-Nol9 or their deletion mutants; Co-IP with anti-Flag antibody, followed by IB
T3 sequence: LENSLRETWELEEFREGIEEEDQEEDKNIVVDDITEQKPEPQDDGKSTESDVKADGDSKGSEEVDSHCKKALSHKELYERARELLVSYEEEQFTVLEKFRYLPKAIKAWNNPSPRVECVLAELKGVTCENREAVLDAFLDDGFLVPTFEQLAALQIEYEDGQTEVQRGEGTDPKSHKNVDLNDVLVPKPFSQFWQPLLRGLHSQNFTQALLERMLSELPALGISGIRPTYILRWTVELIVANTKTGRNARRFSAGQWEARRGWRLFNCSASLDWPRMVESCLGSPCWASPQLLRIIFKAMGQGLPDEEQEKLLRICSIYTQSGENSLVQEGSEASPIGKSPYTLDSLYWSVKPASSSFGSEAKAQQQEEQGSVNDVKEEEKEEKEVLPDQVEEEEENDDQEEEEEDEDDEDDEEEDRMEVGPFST

[5] = molecular target: T4, Flag-Nol9 N-terminal domain (amino acids 1-300) (human) (UniProt Q5SY16); assay: as above
T4 sequence: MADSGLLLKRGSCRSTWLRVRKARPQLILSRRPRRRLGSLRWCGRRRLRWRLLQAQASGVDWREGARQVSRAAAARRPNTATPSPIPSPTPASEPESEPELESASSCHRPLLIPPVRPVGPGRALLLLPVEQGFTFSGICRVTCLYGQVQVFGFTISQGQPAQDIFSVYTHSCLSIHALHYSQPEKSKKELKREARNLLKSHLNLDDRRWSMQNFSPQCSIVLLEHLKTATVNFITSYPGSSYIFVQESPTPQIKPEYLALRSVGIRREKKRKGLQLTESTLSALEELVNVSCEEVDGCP

[6] = molecular target: T1, Flag-tagged USP36; assay: co-IP; Co-IP experiments of Supplementary Fig. S4; cells and bait not given

B1: endogenous Nol9 (enzyme, UniProt Q5SY16 1-702)
chain: MADSGLLLKRGSCRSTWLRVRKARPQLILSRRPRRRLGSLRWCGRRRLRWRLLQAQASGVDWREGARQVSRAAAARRPNTATPSPIPSPTPASEPESEPELESASSCHRPLLIPPVRPVGPGRALLLLPVEQGFTFSGICRVTCLYGQVQVFGFTISQGQPAQDIFSVYTHSCLSIHALHYSQPEKSKKELKREARNLLKSHLNLDDRRWSMQNFSPQCSIVLLEHLKTATVNFITSYPGSSYIFVQESPTPQIKPEYLALRSVGIRREKKRKGLQLTESTLSALEELVNVSCEEVDGCPVILVCGSQDVGKSTFNRYLINHLLNSLPCVDYLECDLGQTEFTPPGCISLLNITEPVLGPPFTHLRTPQKMVYYGKPSCKNNYENYIDIVKYVFSAYKRESPLIVNTMGWVSDQGLLLLIDLIRLLSPSHVVQFRSDHSKYMPDLTPQYVDDMDGLYTKSKTKMRNRRFRLAAFADALEFADEEKESPVEFTGHKLIGVYTDFAFRITPRNRESHNKILRDLSILSYLSQLQPPMPKPLSPLHSLTPYQVPFNAVALRITHSDVAPTHILYAVNASWVGLCKIQDDVRGYTNGPILLAQTPICDCLGFGICRGIDMEKRLYHILTPVPPEELRTVNCLLVGAIAIPHCVLKCQRGIEGTVPYVTTDYNFKLPGASEKIGAREPEEAHKEKPYRRPKFCRKMK
With B1 the binding [1] was “binds”, the binding [2] was “binds” and the binding [3] was “binds”.

B2: V5-tagged USP36 (enzyme, UniProt Q9P275 1-1123)
chain: T1 sequence
In the case of B2, the binding [4] is reported as “binds” and the binding [5] is reported as “binds”.

B3: TEX10 (protein, UniProt Q9NXF1 1-929)
chain: MTKKRKRQHDFQKVKLKVGKKKPKLQNATPTNFKTKTIHLPEQLKEDGTLPTNNRKLNIKDLLSQMHHYNAGVKQSALLGLKDLLSQYPFIIDAHLSNILSEVTAVFTDKDANVRLAAVQLLQFLAPKIRAEQISPFFPLVSAHLSSAMTHITEGIQEDSLKVLDILLEQYPALITGRSSILLKNFVELISHQQLSKGLINRDRSQSWILSVNPNRRLTSQQWRLKVLVRLSKFLQALADGSSRLRESEGLQEQKENPHATSNSIFINWKEHANDQQHIQVYENGGSQPNVSSQFRLRYLVGGLSGVDEGLSSTENLKGFIEIIIPLLIECWVEAVPPQLATPVGNGIEREPLQVMQQVLNIISLLWKLSKQQDETHKLESWLRKNYLIDFKHHFMSRFPYVLKEITKHKRKEPNKSIKHCTVLSNNIDHLLLNLTLSDIMVSLANASTLQKDCSWIEMIRKFVTETLEDGSRLNSKQLNRLLGVSWRLMQIQPNREDTETLIKAVYTLYQQRGLILPVRTLLLKFFSKIYQTEELRSCRFRYRSKVLSRWLAGLPLQLAHLGSRNPELSTQLIDIIHTAAARANKELLKSLQATALRIYDPQEGAVVVLPADSQQRLVQLVYFLPSLPADLLSRLSRCCIMGRLSSSLAAMLIGILHMRSSFSGWKYSAKDWLMSDVDYFSFLFSTLTGFSKEELTWLQSLRGVPHVIQTQLSPVLLYLTDLDQFLHHWDVTEAVFHSLLVIPARSQNFDILQSAISKHLVGLTVIPDSTAGCVFGVICKLLDHTCVVSETLLPFLASCCYSLLYFLLTIEKGEAEHLRKRDKLWGVCVSILALLPRVLRLMLQSLRVNRVGPEELPVVGQLLRLLLQHAPLRTHMLTNAILVQQIIKNITTLKSGSVQEQWLTDLHYCFNVYITGHPQGPSALATVY
For B3, the binding [6] was “binds”.

B4: WDR18 (protein, UniProt Q9BV38 1-432)
chain: MAAPMEVAVCTDSAAPMWSCIVWELHSGANLLTYRGGQAGPRGLALLNGEYLLAAQLGKNYISAWELQRKDQLQQKIMCPGPVTCLTASPNGLYVLAGVAESIHLWEVSTGNLLVILSRHYQDVSCLQFTGDSSHFISGGKDCLVLVWSLCSVLQADPSRIPAPRHVWSHHALPITDLHCGFGGPLARVATSSLDQTVKLWEVSSGELLLSVLFDVSIMAVTMDLAEHHMFCGGSEGSIFQVDLFTWPGQRERSFHPEQDAGKVFKGHRNQVTCLSVSTDGSVLLSGSHDETVRLWDVQSKQCIRTVALKGPVTNAAILLAPVSMLSSDFRPSLPLPHFNKHLLGAEHGDEPRHGGLTLRLGLHQQGSEPSYLDRTEQLQAVLCSTMEKSVLGGQDQLRVRVTELEDEVRNLRKINRDLFDFSTRFITRPAK
For B4, the binding [6] was “binds”.
